Reference: PubChem BioAssay AID493014 (National Center for Advancing Translational Sciences (NCATS), 2011)
Where “and” joins values, the source holds several entries; their conditions need not be identical. Equal values may be shown once. Some of the results follow. These are further read-outs of the screen, such as a control signal, another cell line or another target. No call is given for them. The list favours compounds with an active or inconclusive main result. Words in brackets tell the shape of the fitted curve; partial curves, single points and poor fits give uncertain potencies.

Assay: qHTS Assay to Find Inhibitors of Chronic Active B-Cell Receptor Signaling
Conditions: ABC-DLBCL IkBa-CBG/CBR reporter, luminescence ratio (green luciferase fused to IkBa over red control in TMD8 lymphoma cells), 4 h
Method in brief: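 Compounds up to 46 uM were incubated four hours with TMD8 cells whose green CBG68 luciferase is fused to IkappaBalpha; red CBR luminescence normalised the signal, and concentration-effect curves were fitted to fusion, red and ratio data.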

[1] = measured here: CBR red luminescence, cell number

Row | SMILES | AC50 [1] | AC50 (measured here: IkBa-CBG green luminescence)
1 | CCN1C(=NCc2ccc(OC)cc2)N[C@@H](CCc2ccccc2)[C@H](C(=O)NCc2ccc(OC)cc2)[C@H]1C | 35.5 µM [falling, single point] and 22.4 µM [falling, partial curve, poor fit] | 
2 | Cc1ccc(NC(=O)Nc2cccc(F)c2)nc1 | 2 µM [rising, partial curve, poor fit] | 
3 | Nc1nc(-c2ccc3c(c2)CCO3)cs1 | 5.01 µM [rising, full curve, poor fit] | 
4 | CC(c1ccon1)N(C)Cc1cn(Cc2ccccc2)nc1-c1ccc2c(c1)OCO2 (centres undefined) | 4.47 µM [falling, partial curve, poor fit] | 
5 | NC(=O)CCN1CCN(CCOC2Cc3cc(Cl)ccc3Sc3ccccc32)CC1 (centres undefined) | 18.4 µM [falling, partial curve, poor fit] | 
6 | C#CCOCCOCCOCCNc1nc(N2CCN(C(=O)CCCCCCCCCCNC(=O)[C@H]([C@@H](C)CC)n3cc(CCCCN=C(N)N)nn3)CC2)nc(N2CCN(C(=O)CCCCCCCCCCNC(=O)[C@H](CCCCN)n3cc(C)nn3)CC2)n1 | 10.3 µM [rising, partial curve, poor fit] | 
7 | N#Cc1nc(Nc2cccc(Cl)c2)c2ncn(C3CCCC3)c2n1 | 0.164 µM [rising, full curve, poor fit] | 
8 | O=[N+]([O-])/C(=C\Nc1ccc(F)cc1F)S(=O)(=O)c1ccccc1 | 3.55 µM [falling, single point] | 
9 | CC(NC(=O)c1c(O)c2ccccc2[nH]c1=O)c1ccccc1 (centres undefined) | 0.447 µM [rising, full curve, poor fit] | 
10 | CC(C)(C)C(=O)Nc1ccc(-c2cn3cccnc3n2)cc1 | 3.55 µM [rising, partial curve] | 
11 | O=C(Nc1cccc(-c2csc(Nc3ccc(Cl)cc3)n2)c1)c1cc([N+](=O)[O-])cc(C(F)(F)F)c1 | 7.08 µM [rising, partial curve, poor fit] | 
12 | COC(=O)c1cccc(NC(=O)/C(=C\c2ccccc2)NC(=O)c2ccccc2Cl)c1 | 20 µM [falling, partial curve, poor fit] | 
13 | Oc1cccc2c(NC(=S)Nc3ccc(OC(F)F)cc3)cccc12 | 0.164 µM [falling, full curve] | 
14 | COc1ccccc1CNC(=O)CN1C(=O)NC(C)(c2ccc(C(C)(C)C)cc2)C1=O (centres undefined) | 10 µM [falling, partial curve, poor fit] | 
15 | CCC(CC)c1nnc(NC(=O)c2nn(C)c(=O)c3ccccc23)s1 | 11.2 µM [rising, partial curve, poor fit] | 
16 | Cc1cc(C(=O)OCC(=O)Nc2ccccc2C)c(C)o1 | 18.4 µM [falling, partial curve, poor fit] | 
17 | c1ccc(Nc2nc3ccccc3[nH]2)nc1 | 10 µM [falling, partial curve, poor fit] | 
18 | CCN1CCCC1CNC(=O)c1cc2c(OC)cccc2[nH]1 (centres undefined) | 2.82 µM [falling, full curve, poor fit] | 
19 | CCOC(=O)c1sc(NC(=O)COc2ccc3c(c2)OCO3)nc1C | 1 µM [falling, full curve, poor fit] | 

Row | SMILES | AC50 [1] | AC50 (measured here: IkBa-CBG green luminescence)
20 | Cc1cccc([C@@H]2[C@@H]3C(=O)N(Cc4ccccc4)C(=O)[C@@H]3[C@]3(Cc4ccccc4)C(=O)N(c4ccccc4)C(=O)N23)c1 | 2.59 µM [falling, full curve, poor fit] | 
21 | FC(F)(F)c1ccccc1-n1c(-c2cnccn2)n[nH]c1=S | 10 µM [falling, partial curve] | 
22 | Cc1ccc(N2CC(C(=O)NCCS(=O)(=O)N3CCN(c4ccccc4)CC3)CC2=O)cc1 (centres undefined) | 35.5 µM [rising, single point] | 
23 | O=C(c1ccncc1)c1nccn1-c1ccccn1 | 15.8 µM [falling, single point] | 
24 | CCOC(=O)c1c(C)n(-c2ccccc2)c2ccc(O)cc12 | 20 µM [falling, single point] | 
25 | COc1cccc(N(CC(=O)NCCSc2ccccn2)S(C)(=O)=O)c1 | 0.206 µM [rising, full curve, poor fit] | 
26 | OC(CN1c2ccccc2Sc2ccccc21)Cn1nnc2ccccc21 (centres undefined) | 29.1 µM [falling, single point] | 
27 | COc1ccc(C2=C/C(=C\c3ccc(OC(C)=O)cc3)C(=O)O2)cc1 | 0.708 µM [falling, full curve, poor fit] | 
28 | COCc1[nH]nc2c1C(c1ccsc1)C(C#N)=C(N)O2 (centres undefined) | 35.5 µM [falling, single point] | 
29 | O=C(Nc1ccc2c(c1)C(=O)N(C1CCCCC1)C2=O)C1CCCO1 (centres undefined) | 2.91 µM [rising, full curve] | 2.31 µM [falling, partial curve, poor fit]
30 | CCOc1ccc(NC(=O)CN2CCC(n3cnc4cc(F)ccc43)CC2)cc1 | 12.6 µM [falling, single point] | 
31 | O=C(CSC1=NCCN1)Nc1cccc(C(F)(F)F)c1 | 11.2 µM [falling, partial curve] | 
32 | CCCn1c(SCC(=O)Nc2nc(C)cs2)nnc1-c1cccnc1 | 35.5 µM [falling, single point] | 
33 | COc1ccc2oc(=O)c(C(=O)NCC3CCCO3)cc2c1 (centres undefined) | 15.8 µM [rising, single point] | 
34 | O=C1CC(N2CCC(c3nc4ccccc4o3)CC2)C(=O)N1c1ccc(Cl)c(C(F)(F)F)c1 (centres undefined) | 5.01 µM [falling, full curve, poor fit] | 
35 | CC1(C)C(=O)NC(=O)N1Cc1ccccc1 | 0.103 µM [rising, full curve, poor fit] | 
36 | CCCCc1c(C)c2ccc(OCC(C)=O)cc2oc1=O | 6.51 µM [rising, partial curve, poor fit] | 
37 | COc1cc(/C=C2\C(=N)N3N=C(C)SC3=NC2=O)cc(OC)c1OCCOc1ccccc1C | 2.51 µM [rising, partial curve, poor fit] | 
38 | COc1cccc2cc(C(=O)NC3CC4CCC3C4)oc12 (centres undefined) | 25.1 µM [falling, single point] | 

As entered above.
For AC50 [1], `CCCn1c(SCC(=O)Nc2nc(C)cs2)nnc1-c1cccnc1` is entered as 35.5 µM [falling, single point]
For AC50 [1], `COc1cc(/C=C2\C(=N)N3N=C(C)SC3=NC2=O)cc(OC)c1OCCOc1ccccc1C` is entered as 2.51 µM [rising, partial curve, poor fit]
